Reference: article PMC10022742
Numbering of substitutions follows the chain as printed. No constants are given. Whether binding was seen depends on the method and setting. Binding seen in cells or lysates may run through a third protein. Some entries that bind do so weakly or less than the wild type. Where a sequence is shown, tags or fusion partners need not be part of it.

The chains behind the UniProt entries cited, without tags or fusion partners. Residues count along the entry.
UniProt Q38SD2, residues 28-2015: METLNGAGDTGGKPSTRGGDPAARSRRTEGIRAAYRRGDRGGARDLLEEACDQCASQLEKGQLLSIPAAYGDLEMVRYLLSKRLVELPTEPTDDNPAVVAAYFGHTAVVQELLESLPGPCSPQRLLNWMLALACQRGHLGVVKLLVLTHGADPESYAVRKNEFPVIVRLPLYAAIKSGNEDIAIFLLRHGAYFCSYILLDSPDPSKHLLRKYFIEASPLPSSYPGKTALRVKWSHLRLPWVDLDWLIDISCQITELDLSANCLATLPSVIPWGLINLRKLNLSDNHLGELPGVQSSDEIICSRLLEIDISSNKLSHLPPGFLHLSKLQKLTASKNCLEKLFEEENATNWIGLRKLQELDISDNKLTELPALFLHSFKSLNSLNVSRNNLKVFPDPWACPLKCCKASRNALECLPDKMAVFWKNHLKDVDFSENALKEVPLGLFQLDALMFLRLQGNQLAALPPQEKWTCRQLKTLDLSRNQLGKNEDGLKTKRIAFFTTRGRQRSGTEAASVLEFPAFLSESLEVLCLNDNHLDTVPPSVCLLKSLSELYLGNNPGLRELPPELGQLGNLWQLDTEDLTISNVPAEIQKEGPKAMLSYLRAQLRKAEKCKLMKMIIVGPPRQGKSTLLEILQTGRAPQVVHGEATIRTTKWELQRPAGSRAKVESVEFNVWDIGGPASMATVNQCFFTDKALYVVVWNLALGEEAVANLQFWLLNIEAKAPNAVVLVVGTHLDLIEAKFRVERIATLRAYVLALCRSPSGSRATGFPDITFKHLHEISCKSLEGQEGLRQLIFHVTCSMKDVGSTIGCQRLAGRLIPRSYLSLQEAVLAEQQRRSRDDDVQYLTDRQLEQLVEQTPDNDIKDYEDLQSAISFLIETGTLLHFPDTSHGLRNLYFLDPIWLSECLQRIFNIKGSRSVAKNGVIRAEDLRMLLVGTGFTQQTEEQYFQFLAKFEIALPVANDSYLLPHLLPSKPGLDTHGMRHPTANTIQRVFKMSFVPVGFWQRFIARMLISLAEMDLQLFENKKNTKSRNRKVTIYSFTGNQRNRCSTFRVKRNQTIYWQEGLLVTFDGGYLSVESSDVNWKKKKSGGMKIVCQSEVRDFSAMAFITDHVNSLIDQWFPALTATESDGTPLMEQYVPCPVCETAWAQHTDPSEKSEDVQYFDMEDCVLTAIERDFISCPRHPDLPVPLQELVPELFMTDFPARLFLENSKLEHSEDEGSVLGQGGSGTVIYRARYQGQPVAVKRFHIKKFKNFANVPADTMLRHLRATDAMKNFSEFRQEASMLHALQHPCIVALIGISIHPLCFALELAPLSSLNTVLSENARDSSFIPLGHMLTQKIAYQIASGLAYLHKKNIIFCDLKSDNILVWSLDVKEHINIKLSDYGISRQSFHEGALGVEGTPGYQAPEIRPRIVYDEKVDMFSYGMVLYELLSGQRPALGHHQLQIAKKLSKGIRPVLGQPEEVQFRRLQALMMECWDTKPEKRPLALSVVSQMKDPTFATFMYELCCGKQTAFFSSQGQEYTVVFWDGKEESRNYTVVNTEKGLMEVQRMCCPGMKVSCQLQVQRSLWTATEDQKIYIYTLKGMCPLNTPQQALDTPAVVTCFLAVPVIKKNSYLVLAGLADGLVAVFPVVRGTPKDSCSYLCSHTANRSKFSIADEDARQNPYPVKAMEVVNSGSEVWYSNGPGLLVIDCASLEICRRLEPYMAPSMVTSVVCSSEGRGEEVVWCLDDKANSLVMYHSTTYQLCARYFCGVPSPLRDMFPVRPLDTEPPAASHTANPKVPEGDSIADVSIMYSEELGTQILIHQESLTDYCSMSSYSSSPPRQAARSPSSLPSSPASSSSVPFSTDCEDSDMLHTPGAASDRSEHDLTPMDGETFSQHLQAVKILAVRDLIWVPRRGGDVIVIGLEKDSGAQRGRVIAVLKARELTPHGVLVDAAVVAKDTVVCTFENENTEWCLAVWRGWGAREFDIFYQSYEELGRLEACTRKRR

What was measured:
Flag–PTP1B = molecular target: T1, Flag–PTP1B (UniProt P18031); assay: co-IP; HEK293 cells co-transfected, serum-starved 16 h, stimulated with EGF (50 ng/ml) for the indicated times (0 or 10 min for EGFR); cells treated with control or LRRK1 siRNA in the EGFR experiment; RIPA lysates; IP with anti-Flag (M2) on Dynabeads Protein G, 2 h at 4°C; blot with anti-GFP or anti-EGFR
T1 sequence: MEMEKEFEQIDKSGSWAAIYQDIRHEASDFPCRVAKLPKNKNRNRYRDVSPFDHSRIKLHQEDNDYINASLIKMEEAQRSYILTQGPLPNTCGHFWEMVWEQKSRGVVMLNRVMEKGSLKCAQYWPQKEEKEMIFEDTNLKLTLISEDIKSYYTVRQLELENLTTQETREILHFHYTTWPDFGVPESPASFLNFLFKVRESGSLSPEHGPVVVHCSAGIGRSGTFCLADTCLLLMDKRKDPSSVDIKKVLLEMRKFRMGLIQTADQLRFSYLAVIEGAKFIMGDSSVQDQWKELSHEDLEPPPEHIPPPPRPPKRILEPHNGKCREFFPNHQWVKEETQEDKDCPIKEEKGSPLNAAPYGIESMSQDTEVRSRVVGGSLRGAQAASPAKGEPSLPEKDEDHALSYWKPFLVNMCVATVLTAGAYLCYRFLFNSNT

Flag–PTP1B(C215S) = molecular target: T2, Flag–PTP1B(C215S) (UniProt P18031); assay: as above
T2 sequence: T1 sequence with C215S

binding (Flag–PTP1B): binds | binding (Flag–PTP1B(C215S)): binds
Substance: GFP–LRRK1 (leucine-rich repeat kinase 1) (from UniProt Q38SD2-1 28-2015)
